Measured values from publication PMC3852179.
Changes are numbered by the printed parent chain. Results are given in words; binding and its absence hold for the method and conditions named. Binding seen in cells or lysates may run through a third protein. Some results given as binding are weak or reduced against the parent protein; the word gives no strength. Tags and fused reporters may be left off the sequences shown. One block for each molecule: values may come before it.

By UniProt entry, the sequences of proteins in these tests, tags left out.
UniProt Q15046: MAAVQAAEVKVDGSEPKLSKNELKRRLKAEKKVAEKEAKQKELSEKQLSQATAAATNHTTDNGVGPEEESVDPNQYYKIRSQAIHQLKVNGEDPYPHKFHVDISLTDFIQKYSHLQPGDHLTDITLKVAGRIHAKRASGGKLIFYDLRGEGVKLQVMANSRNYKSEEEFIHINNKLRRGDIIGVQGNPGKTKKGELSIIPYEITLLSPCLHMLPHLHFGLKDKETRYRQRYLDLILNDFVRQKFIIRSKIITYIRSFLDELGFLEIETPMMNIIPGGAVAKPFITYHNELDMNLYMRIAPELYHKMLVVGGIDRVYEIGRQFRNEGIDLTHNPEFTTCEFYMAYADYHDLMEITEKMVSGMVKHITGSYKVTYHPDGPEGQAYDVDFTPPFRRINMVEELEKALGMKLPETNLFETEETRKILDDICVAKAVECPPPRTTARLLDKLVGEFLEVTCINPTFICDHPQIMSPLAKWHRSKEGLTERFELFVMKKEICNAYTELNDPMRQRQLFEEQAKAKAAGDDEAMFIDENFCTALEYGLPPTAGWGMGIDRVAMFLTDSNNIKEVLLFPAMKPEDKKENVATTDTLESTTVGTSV

Columns and labels:
Test in all cases: co-IP; MARS-FLAG immuno-isolated from transfected HEK293 lysates (1% Triton-X100/25 mM HEPES, pH 7.9/10% glycerol, protease inhibitors) on anti-FLAG M2 affinity gel, 2 h at 4°C, washed with cold PBS, eluted with 0.5 mg/ml FLAG peptide; co-purified KARS and RARS detected by western blotting
I523T MARS-FLAG (human) = biological target: T1, I523T MARS-FLAG (human) (UniProt P56192)
T1 sequence: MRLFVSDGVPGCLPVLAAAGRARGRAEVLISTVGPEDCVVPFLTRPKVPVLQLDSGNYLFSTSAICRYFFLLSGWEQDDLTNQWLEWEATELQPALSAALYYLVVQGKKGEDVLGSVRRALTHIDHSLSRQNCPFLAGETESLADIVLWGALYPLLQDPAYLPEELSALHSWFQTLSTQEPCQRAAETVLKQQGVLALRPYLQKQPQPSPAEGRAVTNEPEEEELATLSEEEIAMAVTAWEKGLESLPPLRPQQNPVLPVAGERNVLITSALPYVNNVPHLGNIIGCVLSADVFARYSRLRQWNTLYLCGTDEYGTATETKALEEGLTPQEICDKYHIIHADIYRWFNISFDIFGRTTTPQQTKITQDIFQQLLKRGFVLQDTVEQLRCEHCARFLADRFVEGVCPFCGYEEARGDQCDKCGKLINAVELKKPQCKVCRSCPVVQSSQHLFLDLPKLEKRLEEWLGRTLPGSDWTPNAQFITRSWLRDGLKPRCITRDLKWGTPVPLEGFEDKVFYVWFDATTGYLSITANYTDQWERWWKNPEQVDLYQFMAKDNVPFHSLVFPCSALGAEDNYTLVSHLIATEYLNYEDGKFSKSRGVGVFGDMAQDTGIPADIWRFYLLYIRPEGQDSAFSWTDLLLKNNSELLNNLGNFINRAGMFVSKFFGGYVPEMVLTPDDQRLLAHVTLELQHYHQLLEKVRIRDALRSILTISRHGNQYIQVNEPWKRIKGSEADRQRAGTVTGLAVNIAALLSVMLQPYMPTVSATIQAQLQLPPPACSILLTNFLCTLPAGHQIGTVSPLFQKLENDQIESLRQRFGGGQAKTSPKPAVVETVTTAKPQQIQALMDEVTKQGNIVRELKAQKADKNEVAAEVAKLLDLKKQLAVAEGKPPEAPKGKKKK

F370L MARS-FLAG (human) = biological target: T2, F370L MARS-FLAG (human) (UniProt P56192)
T2 sequence: T1 sequence with F370L, T523I

[1] = biological target: T3, wild-type MARS-FLAG (human methionyl-tRNA synthetase with a C-terminal FLAG sequence) (human) (UniProt P56192)
T3 sequence: T1 sequence with T523I

[2] = biological target: T4, wild-type MARS-FLAG (human methionyl-tRNA synthetase with a C-terminal FLAG sequence) (human), P56192; conditions: remark: other sources report otherwise
T4 chain: T1 sequence with T523I

binding (I523T MARS-FLAG (human)): binds
binding (F370L MARS-FLAG (human)): binds
binding [1]: binds
Molecule: lysyl-tRNA synthetase (KARS) (from UniProt Q15046 1-597) (enzyme)

binding [2]: binds
B1: arginyl-tRNA synthetase (RARS), P54136 1-660 (enzyme)
chain: MDVLVSECSARLLQQEEEIKSLTAEIDRLKNCGCLGASPNLEQLQEENLKLKYRLNILRKSLQAERNKPTKNMINIISRLQEVFGHAIKAAYPDLENPPLLVTPSQQAKFGDYQCNSAMGISQMLKTKEQKVNPREIAENITKHLPDNECIEKVEIAGPGFINVHLRKDFVSEQLTSLLVNGVQLPALGENKKVIVDFSSPNIAKEMHVGHLRSTIIGESISRLFEFAGYDVLRLNHVGDWGTQFGMLIAHLQDKFPDYLTVSPPIGDLQVFYKESKKRFDTEEEFKKRAYQCVVLLQGKNPDITKAWKLICDVSRQELNKIYDALDVSLIERGESFYQDRMNDIVKEFEDRGFVQVDDGRKIVFVPGCSIPLTIVKSDGGYTYDTSDLAAIKQRLFEEKADMIIYVVDNGQSVHFQTIFAAAQMIGWYDPKVTRVFHAGFGVVLGEDKKKFKTRSGETVRLMDLLGEGLKRSMDKLKEKERDKVLTAEELNAAQTSVAYGCIKYADLSHNRLNDYIFSFDKMLDDRGNTAAYLLYAFTRIRSIARLANIDEEMLQKAARETKILLDHEKEWKLGRCILRFPEILQKILDDLFLHTLCDYIYELATAFTEFYDSCYCVEKDRQTGKILKVNMWRMLLCEAVAAVMAKGFDILGIKPVQRM

binding (I523T MARS-FLAG (human)): binds
binding (F370L MARS-FLAG (human)): binds
B2: arginyl-tRNA synthetase (RARS) (enzyme, UniProt P54136 1-660)
chain: B1 chain
